According to patent EP0665239A1 (CONSIGLIO NAZIONALE DELLE RICERCHE, priority 1994, dated 1995):
HELM strings list residues between dots; [ac] is acetyl, [am] amide, other brackets name non-standard units.

Tests used:
[1] = general procedure: Fmoc solid-phase peptide synthesis in flow; PepSyn KA; settings: whole synthesis, HPLC peak area, scale 0.09 mmole
[2] = general procedure: Fmoc solid-phase peptide synthesis in flow; PepSyn KA resin; settings: whole synthesis, HPLC peak area, scale of the general procedure 0.09 mmole (1 g resin)

Substance	crude HPLC purity [1]	crude HPLC purity [2]
PEPTIDE1{R.F.R.P.P.I.R.R.P.P.I.R.P.P.F.Y.P.P.F.R.P.P.I.R.P}$$$$V2.0	71%	
PEPTIDE1{R.R.I.R.P.R.P.P.R.L.P.R.P.R.P.R.P.L.P.F.P.R.P.G.P.R.P.I.P.R.P.L.P.F.P}$$$$V2.0		about 66%
PEPTIDE1{R.R.I.R.P.R.P.P.R.L.P.R.P.R.P.R.P.L.P.F.P.R.P}$$$$V2.0	78%	
PEPTIDE1{R.R.I.R.P.R.P.P.R.L.P.R.P.R.P.R.P.L}$$$$V2.0	about 80%	
